Data reported in the supplement of paper PMC7661543.
Differences between knockout arms are mostly noise.

Test system: MDA-MB-231
Assay: relative cell number vs DMSO control (72 h) (% of DMSO); higher = less growth inhibition (more cells)
Protocol: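 QMAP-Seq: a pool of 5 breast cancer cell lines (ZR-75-1, SKBR3, HCC-38, MDA-MB-231, BT-20), each carrying 12 doxycycline-inducible Cas9 sgRNA perturbations (11 knockouts plus non-targeting sgNT), was treated with compounds for 72 h at four 10-fold doses (10 nM-10 uM or 1 nM-1 uM range). Barcodes were amplified and sequenced, and cell number was interpolated from 293T spike-in standard curves. The result is expressed as % of the median of DMSO wells. Two biological replicates.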

Cc1nc(Nc2ncc(C(=O)Nc3c(C)cccc3Cl)s2)cc(N2CCN(CCO)CC2)n1 [Dasatinib]
Conditions | relative cell number
sgRNA knockout: sgATF3, 10 nM | 108
sgRNA knockout: sgATF3, 100 nM | 43.1
sgRNA knockout: sgATF3, 1000 nM | 48.5
sgRNA knockout: sgATF3, 10000 nM | 20.6
sgRNA knockout: sgATF4, 10 nM | 82
sgRNA knockout: sgATF4, 100 nM | 53.6
sgRNA knockout: sgATF4, 1000 nM | 63
sgRNA knockout: sgATF4, 10000 nM | 20.3
sgRNA knockout: sgATF6, 10 nM | 86.7
sgRNA knockout: sgATF6, 100 nM | 48.2
sgRNA knockout: sgATF6, 1000 nM | 51.9
sgRNA knockout: sgATF6, 10000 nM | 20.5
sgRNA knockout: sgATG7, 10 nM | 102.2
sgRNA knockout: sgATG7, 100 nM | 41.5
sgRNA knockout: sgATG7, 1000 nM | 54.1
sgRNA knockout: sgATG7, 10000 nM | 16.2
sgRNA knockout: sgERN1, 10 nM | 92.8
sgRNA knockout: sgERN1, 100 nM | 45
sgRNA knockout: sgERN1, 1000 nM | 50.6
sgRNA knockout: sgERN1, 10000 nM | 22.1
sgRNA knockout: sgHSF1, 10 nM | 108
sgRNA knockout: sgHSF1, 100 nM | 46.4
sgRNA knockout: sgHSF1, 1000 nM | 62.1
sgRNA knockout: sgHSF1, 10000 nM | 13.6
sgRNA knockout: sgHSF2, 10 nM | 88
sgRNA knockout: sgHSF2, 100 nM | 43.4
sgRNA knockout: sgHSF2, 1000 nM | 54
sgRNA knockout: sgHSF2, 10000 nM | 23
sgRNA knockout: sgKEAP1, 10 nM | 87.1
sgRNA knockout: sgKEAP1, 100 nM | 39.8
sgRNA knockout: sgKEAP1, 1000 nM | 66.1
sgRNA knockout: sgKEAP1, 10000 nM | 14.3
sgRNA knockout: sgNFE2L2, 10 nM | 99.6
sgRNA knockout: sgNFE2L2, 100 nM | 39.7
sgRNA knockout: sgNFE2L2, 1000 nM | 51.8
sgRNA knockout: sgNFE2L2, 10000 nM | 16.9
sgRNA knockout: sgSLC35F2, 10 nM | 95.9
sgRNA knockout: sgSLC35F2, 100 nM | 44.1
sgRNA knockout: sgSLC35F2, 1000 nM | 41.5
sgRNA knockout: sgSLC35F2, 10000 nM | 19.6
sgRNA knockout: sgXBP1, 10 nM | 86.92
sgRNA knockout: sgXBP1, 100 nM | 36.6
sgRNA knockout: sgXBP1, 1000 nM | 53
sgRNA knockout: sgXBP1, 10000 nM | 15.3

COc1cc2nccc(Oc3ccc(NC(=O)NC4CC4)c(Cl)c3)c2cc1C(N)=O [Lenvatinib]
Conditions | relative cell number
sgRNA knockout: sgATF3, 10 nM | 97.9
sgRNA knockout: sgATF3, 100 nM | 95.1
sgRNA knockout: sgATF3, 1000 nM | 124
sgRNA knockout: sgATF3, 10000 nM | 91.4
sgRNA knockout: sgATF4, 10 nM | 118
sgRNA knockout: sgATF4, 100 nM | 107
sgRNA knockout: sgATF4, 1000 nM | 93.5
sgRNA knockout: sgATF4, 10000 nM | 96.27
sgRNA knockout: sgATF6, 10 nM | 90.87
sgRNA knockout: sgATF6, 100 nM | 90.9
sgRNA knockout: sgATF6, 1000 nM | 85.7
sgRNA knockout: sgATF6, 10000 nM | 105
sgRNA knockout: sgATG7, 10 nM | 76.2
sgRNA knockout: sgATG7, 100 nM | 102
sgRNA knockout: sgATG7, 1000 nM | 84.1
sgRNA knockout: sgATG7, 10000 nM | 92.6
sgRNA knockout: sgERN1, 10 nM | 96.9
sgRNA knockout: sgERN1, 100 nM | 103
sgRNA knockout: sgERN1, 1000 nM | 98.9
sgRNA knockout: sgERN1, 10000 nM | 81.6
sgRNA knockout: sgHSF1, 10 nM | 98.7
sgRNA knockout: sgHSF1, 100 nM | 97.4
sgRNA knockout: sgHSF1, 1000 nM | 125.4
sgRNA knockout: sgHSF1, 10000 nM | 106
sgRNA knockout: sgHSF2, 10 nM | 86.4
sgRNA knockout: sgHSF2, 100 nM | 97.2
sgRNA knockout: sgHSF2, 1000 nM | 95.8
sgRNA knockout: sgHSF2, 10000 nM | 105
sgRNA knockout: sgKEAP1, 10 nM | 90.3
sgRNA knockout: sgKEAP1, 100 nM | 110
sgRNA knockout: sgKEAP1, 1000 nM | 108
sgRNA knockout: sgKEAP1, 10000 nM | 90.4
sgRNA knockout: sgNFE2L2, 10 nM | 100
sgRNA knockout: sgNFE2L2, 100 nM | 120
sgRNA knockout: sgNFE2L2, 1000 nM | 117
sgRNA knockout: sgNFE2L2, 10000 nM | 120
sgRNA knockout: sgSLC35F2, 10 nM | 101
sgRNA knockout: sgSLC35F2, 100 nM | 97
sgRNA knockout: sgSLC35F2, 1000 nM | 106
sgRNA knockout: sgSLC35F2, 10000 nM | 88.4
sgRNA knockout: sgXBP1, 10 nM | 100
sgRNA knockout: sgXBP1, 100 nM | 104
sgRNA knockout: sgXBP1, 1000 nM | 108
sgRNA knockout: sgXBP1, 10000 nM | 96.9

CN1CCN(CCOc2cc(OC3CCOCC3)c3c(Nc4c(Cl)ccc5c4OCO5)ncnc3c2)CC1 [Saracatinib]
Conditions | relative cell number
sgRNA knockout: sgATF3, 10 nM | 111
sgRNA knockout: sgATF3, 100 nM | 75.2
sgRNA knockout: sgATF3, 1000 nM | 78.2
sgRNA knockout: sgATF3, 10000 nM | 48.1
sgRNA knockout: sgATF4, 10 nM | 95
sgRNA knockout: sgATF4, 100 nM | 91
sgRNA knockout: sgATF4, 1000 nM | 69.9
sgRNA knockout: sgATF4, 10000 nM | 48.6
sgRNA knockout: sgATF6, 10 nM | 93
sgRNA knockout: sgATF6, 100 nM | 82.67
sgRNA knockout: sgATF6, 1000 nM | 59.3
sgRNA knockout: sgATF6, 10000 nM | 46.8
sgRNA knockout: sgATG7, 10 nM | 104
sgRNA knockout: sgATG7, 100 nM | 79.3
sgRNA knockout: sgATG7, 1000 nM | 61.4
sgRNA knockout: sgATG7, 10000 nM | 48.1
sgRNA knockout: sgERN1, 10 nM | 89.5
sgRNA knockout: sgERN1, 100 nM | 85.6
sgRNA knockout: sgERN1, 1000 nM | 63.5
sgRNA knockout: sgERN1, 10000 nM | 50.8
sgRNA knockout: sgHSF1, 10 nM | 85.7
sgRNA knockout: sgHSF1, 100 nM | 82.2
sgRNA knockout: sgHSF1, 1000 nM | 64.9
sgRNA knockout: sgHSF1, 10000 nM | 47.2
sgRNA knockout: sgHSF2, 10 nM | 87.3
sgRNA knockout: sgHSF2, 100 nM | 103
sgRNA knockout: sgHSF2, 1000 nM | 62.1
sgRNA knockout: sgHSF2, 10000 nM | 48.9
sgRNA knockout: sgKEAP1, 10 nM | 71.9
sgRNA knockout: sgKEAP1, 100 nM | 103
sgRNA knockout: sgKEAP1, 1000 nM | 81.5
sgRNA knockout: sgKEAP1, 10000 nM | 42.2
sgRNA knockout: sgNFE2L2, 10 nM | 77.6
sgRNA knockout: sgNFE2L2, 100 nM | 77.8
sgRNA knockout: sgNFE2L2, 1000 nM | 61.1
sgRNA knockout: sgNFE2L2, 10000 nM | 44.3
sgRNA knockout: sgSLC35F2, 10 nM | 78.2
sgRNA knockout: sgSLC35F2, 100 nM | 101
sgRNA knockout: sgSLC35F2, 1000 nM | 73
sgRNA knockout: sgSLC35F2, 10000 nM | 39.5
sgRNA knockout: sgXBP1, 10 nM | 86.6
sgRNA knockout: sgXBP1, 100 nM | 90.8
sgRNA knockout: sgXBP1, 1000 nM | 65.4
sgRNA knockout: sgXBP1, 10000 nM | 44
